For some of these results: The name of at least one read-out is uncertain. Some results were stated once for a whole list of compounds, not compound by compound.
Legend:
[1] = Pharmacokinetic profiles in CD-1 mice; type: in vivo; details: 30 mg/kg
[2] = test system: 36 tumor cell lines; test: Anticancer activity profiling of Compound 2 against 36 cell lines (IC50); type: cell-based

SMILES | time plasma concentration maintained at therapeutically relevant levels ([1]; intraperitoneal) | IC50 levels against 36 tumor types (in words) [2] | time plasma concentration maintained at therapeutically relevant levels ([1]; intravenous)
CC(C)=CCC/C(C)=C/CC/C(C)=C/CN1C(=O)c2cccc(O)c2Nc2c(O)cc(O)cc21 [Compound 1, 10-farnesyl-4,6,8-trihydroxy-5,10-dihydrodibenzo[b,e][1,4]diazepin-11-one] | over 8 hours | – | –
CC(C)=CCC/C(C)=C/CC/C(C)=C/CN1C(=O)c2cccc(O)c2N(C)c2c(O)cc(O)cc21 [Compound 2, 10-farnesyl-4,6,8-trihydroxy-5-methyl-5,10-dihydro-dibenzo[b,e][1,4]diazepin-11-one] | over 8 hours | low micromolar to nanomolar | over 8 hours
